The values that follow come from patent publication US20240299265A1, “ETHER COMPOUNDS AS VOLATILES FOR THE TREATMENT OF AMINO ACID BASED SUBSTRATES, SUCH AS SKIN AND HAIR” (MOMENTIVE PERFORMANCE MATERIALS GMBH, priority 2021, published 2024).

No dose or concentration is given here for some results.

The data set can be described thus: Sensory performance: 5 panelists rub neat compound on the forearm. Conditions: neat compound rubbed on forearm; for Residue and greasiness: panelists who mentioned no residue and greasiness was observed: residue left after rub; for Spreading: panelists who mentioned enhanced spreading over Comparative Ex. 2: spreading during rub, versus Comparative Ex. 2 (SF1202); for Soft after feel: panelists who mentioned a softer after feel than Comparative Ex. 1: versus Comparative Ex. 1 (Cetiol Ultimate). The class given is in vivo. On the procedure: The sensory performance of materials was tested by 5 panelists by rubbing small amount of neat Example compounds or neat Comparative Example compounds on the forearm. The performance was measured for spreading during rub, soft after feel, and residue left after rub.

Regarding `CCCCCCCCCCOC(C)(C)C` [Example 1, n-decyl-t-butyl ether], the “Residue and greasiness: panelists who mentioned no residue and greasiness was observed” value is reported as 3 out of 5; the “Spreading: panelists who mentioned enhanced spreading over Comparative Ex. 2” value is given as 5 out of 5; the “Soft after feel: panelists who mentioned a softer after feel than Comparative Ex. 1” value is recorded as 5 out of 5.

As for `CCCCCCCCCCCCOC(C)(C)C` [Example 2, n-dodecyl-t-butyl ether], the “Residue and greasiness: panelists who mentioned no residue and greasiness was observed” value was 3 out of 5; the “Spreading: panelists who mentioned enhanced spreading over Comparative Ex. 2” value was 5 out of 5; the “Soft after feel: panelists who mentioned a softer after feel than Comparative Ex. 1” value is recorded as 5 out of 5.
